Measurements reported in PubChem BioAssay AID652259 (Drosophila RNAi Screening Center, 2013).

Screen: 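Identify new Wingless signalling regulators in fly cells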 (primary screen)
Cells: Drosophila clone 8 imaginal disc epithelial cells
Knock-down reagent: long dsRNA against Drosophila genes
Treatment: pathway stimulated by co-transfected Wingless expression plasmid
Measured: 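Dual luciferase reads per well after Wingless plasmid stimulation: reporter firefly light and Renilla control light; activity is firefly divided by Renilla, a ratio not deposited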
Scale: firefly reporter light: higher = more Wg reporter light, before normalisation; Renilla control light: higher = more transfected or surviving cells
Hit rule: 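Strong candidates differ from their plate mean by at least two out of four per-plate statistical tests; weak candidates meet just one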
Meaning of the calls: active = candidate regulator (raises or lowers reporter); inactive = not a candidate
In all, the deposit lists about 22,000 reagents; this is a random part of those with a known target gene and a result. Of all reagents, 233 (1.1%) are marked active. 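Light values are raw, unnormalised plate reads; the ratio scores behind the reporter calls were not deposited.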 Names joined by + are all predicted targets of the reagent. Reagent sequences are not shown. The record does not give: the amount of reagent, the time to read-out, the dose of the treatment.

gene	dsRNA	reporter change call, replicate 1	firefly reporter light, replicate 1	firefly reporter light, replicate 2	Renilla control light, replicate 1	Renilla control light, replicate 2	outcome
Enoph	DRSC12201		17020		3574		inactive
CG1146	DRSC08189		12128		3604		inactive
Mrm2	DRSC14310		13569		3667		inactive
CG4953	DRSC02792		8155		2505		inactive
CG1316	DRSC08304		6667		2582		inactive
CG33290	DRSC11493		1995		1277		inactive
Sobp	DRSC07312		16539		2214		inactive
CG18766	DRSC15936		2147	4246	964	1717	inactive
7B2	DRSC11991		12945		4083		inactive
egr	DRSC06233		3002	5873	980	3014	inactive
CG10209	DRSC05980		16567		4056		inactive
CG13609	DRSC14612		34215		23505		inactive
CG13609	DRSC22843		4.35e5	4.22e5	2.03e5	1.66e5	inactive
CG4730	DRSC15633		15783		13436		inactive
CG1724	DRSC20548		14273		9930		inactive
sle	DRSC14557		4530		1685		inactive
C3G	DRSC17745		20663		11153		inactive
C3G	DRSC17929		21475		13304		inactive
C3G	DRSC22329		7.08e5	6.86e5	3.54e5	3.34e5	inactive
lncRNA:CR42859	DRSC00103		17029		12444		inactive
CG32809	DRSC18507		3810	9420	1869	4432	inactive
CG32809	DRSC18592		2500	5060	1238	1713	inactive
CG6330	DRSC16022		2339	4540	813	1737	inactive
Grip163	DRSC10538		4989		1971		inactive
Idh3a	DRSC19446		18784		10707		inactive
CG13476	DRSC10019		4778		2194		inactive
CG42557 + CG42558	DRSC13963		3173		2226		inactive
CG42557 + CG42558	DRSC16329		3658	3168	883	1184	inactive
CG12347	DRSC14502		15386		3605		inactive
CG43134	DRSC17318		5990		1779		inactive
TM9SF3	DRSC09747		1237	5760	944	3014	inactive
ScsbetaG	DRSC11294		1619	7618	1221	4666	inactive
CG6178	DRSC15984		2133	5921	838	1707	inactive
Obp44a	DRSC06838		3212	6884	714	2968	inactive
CG14229	DRSC19585		27160		4517		inactive

A stretch of the results above, as a working copy:
gene	dsRNA	reporter change call, replicate 1	firefly reporter light, replicate 1	firefly reporter light, replicate 2	Renilla control light, replicate 1	Renilla control light, replicate 2	outcome
Mrm2	DRSC14310		13569		3667		inactive
CG4953	DRSC02792		8155		2505		inactive
CG1316	DRSC08304		6667		2582		inactive
CG33290	DRSC11493		1995		1277		inactive
Sobp	DRSC07312		16539		2214		inactive
CG18766	DRSC15936		2147	4246	964	1717	inactive
7B2	DRSC11991		12945		4083		inactive

Further entries follow:
gene	dsRNA	reporter change call, replicate 1	firefly reporter light, replicate 1	firefly reporter light, replicate 2	Renilla control light, replicate 1	Renilla control light, replicate 2	outcome
CG34305	DRSC11995		2770		1357		inactive
Chrac-16	DRSC20343		13729		6230		inactive
CG7102	DRSC02647		10000		4552		inactive
CG7102	DRSC03007		2331	5973	765	2649	inactive
bnb	DRSC20314		3552	7724	1353	2764	inactive
CG13912	DRSC08381		4704		2184		inactive
RhoGEF64C	DRSC08318		6182		2187		inactive
RhoGEF64C	DRSC08319		977	4928	792	2556	inactive
spn-F	DRSC14475		1741	6357	800	1826	inactive
PGRP-SC2	DRSC06481		2637	7648	1004	3288	inactive
CG10494	DRSC04072		10706		2646		inactive
axed	DRSC08833		3152		1428		inactive
axed	DRSC10982	Wg reporter activity lowered	656	5964	973	3069	inactive
Tom	DRSC11306		4012		1952		inactive
CG10472	DRSC09730		6242		3339		inactive
DptA	DRSC07404		13888		2957		inactive
crc	DRSC03513		3261	7005	979	3063	inactive
Bin1	DRSC16843		17315		3898		inactive
CG4984 + CG4975	DRSC06907		6618		2203		inactive
CG4984 + CG4975	DRSC06908		19248		5485		inactive
wry	DRSC00352		2144	5148	668	1915	inactive
wry	DRSC00456		3792	12186	1924	3846	inactive
wry	DRSC22414		5.04e5	5.01e5	1.92e5	59873	inactive
muskelin	DRSC07273		5219		2080		inactive
Usp10	DRSC08282		20824		5482		inactive
Usp10	DRSC08373		4453		1818		inactive
eIF4EHP	DRSC13653		4406		2032		inactive
eIF4EHP	DRSC14265		1490	6202	728	2018	inactive
CG10257	DRSC05985		5616		2088		inactive
abs	DRSC12372		7788		2696		inactive
CG3776	DRSC04417		10652		3824		inactive
CG7514	DRSC08597		1764	6250	1002	2697	inactive
Not11	DRSC04204		2790	7543	776	2701	inactive
Unc-115b + p24-2	DRSC16492		5336		2464		inactive
CG8191 + CG12379	DRSC19451		24672		13797		inactive
Pym	DRSC22492		4.81e5	4.76e5	95431	53798	inactive
Sema1a	DRSC03433		2549	7354	737	2315	inactive
Nadk2	DRSC07072		11511		2955		inactive
